# Some of the results follow.
# B1: RbmA (Vibrio cholerae), A0A2H4NFB8 (protein)
# chain: MSNFKGSIMNKRHYYLASCLALLFSTASYAEVDCELQPVIEANLSLNQNQLASNGGYISSQLGIRNESCETVKFKYWLSIKGPEGIYFPAKAVVGVDTAQQESDALTDGRMLNVTRGFWVPEYMADGKYTVSLQVVAENGEVFKANQEFVKGGDLNSLPELNGLTIDIKNQFGINSVESTGGFVPFTIDLNNGREGEAKVEFWMTAVGPDGLIIPVHSREKWMIIAGNTFSKVRGINFDKSYPAGEYTINAQVVDIVSGERVEQLMTVVKK
# Target: Neu5Gc(b2-6)Gal(b1-4)GlcNAc
# Assay: glycan array binding signal (z-score within array); higher = stronger binding
# Conditions: glycan notation: IUPAC condensed, linker removed
# How it was run: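 Glycan array data came from 3228 arrays in the Consortium for Functional Glycomics database, and only arrays with an available protein sequence were kept. Glycan names were put into IUPAC-condensed notation, and columns mapping to the same glycan were averaged. The binding signal is a within-array Z-score, averaged across arrays of one protein sequence run at different concentrations or buffers and across linkers. A negative Z-score can be read as non-binding.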
binder,measurement,value
B1,glycan array binding signal (z-score),-0.615
